Source: paper PMC7261175, “A splice site-sensing conformational switch in U2AF2 is modulated by U2AF1 and its recurrent myelodysplasia-associated mutation” (Nucleic Acids Research, 2019)
Results are given in words; binding and its absence hold for the method and conditions named. A result given as binding can be weak or reduced; the word gives no strength. For some assays here: Where a sequence is shown, tags or fusion partners need not be part of it.

By UniProt entry, the sequences of proteins in these tests, tags left out. Where a name states a change or a piece, a line headed by the entry shows the natural chain unless it says otherwise.
UniProt P26368: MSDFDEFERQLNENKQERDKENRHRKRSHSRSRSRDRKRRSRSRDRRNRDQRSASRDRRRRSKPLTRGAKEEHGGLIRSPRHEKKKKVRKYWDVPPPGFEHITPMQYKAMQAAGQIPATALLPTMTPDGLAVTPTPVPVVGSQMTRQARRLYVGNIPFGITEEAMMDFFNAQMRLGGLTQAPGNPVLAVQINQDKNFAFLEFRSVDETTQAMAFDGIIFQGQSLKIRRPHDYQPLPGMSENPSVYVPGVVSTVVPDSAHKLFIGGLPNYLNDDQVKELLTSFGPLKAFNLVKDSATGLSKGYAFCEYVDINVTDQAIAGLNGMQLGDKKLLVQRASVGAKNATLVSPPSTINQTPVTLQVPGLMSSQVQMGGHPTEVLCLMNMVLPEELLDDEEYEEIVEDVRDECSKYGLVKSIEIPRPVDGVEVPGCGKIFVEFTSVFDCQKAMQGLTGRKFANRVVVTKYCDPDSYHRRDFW

How the values were obtained:
[1] = target: untagged U2AF1 (residues 1-193, MBP cleaved) (human) (UniProt Q01081); assay: SEC; subunits co-expressed in E. coli; sequential MBP-affinity and GST-affinity chromatography, GST cleaved (MBP cleaved too for the untagged heterodimer), then Superdex-200 in 150 mM NaCl, 25 mM HEPES pH 7.0, 20 uM ZnCl2, 3% glycerol, 0.5 mM TCEP, 0.5 mM DTT
[2] = target: T1, His6SumoMBP-U2AF1 (residues 1-188, C67S, C-terminal alanine) (human) (UniProt Q01081); assay: as above
T1 sequence: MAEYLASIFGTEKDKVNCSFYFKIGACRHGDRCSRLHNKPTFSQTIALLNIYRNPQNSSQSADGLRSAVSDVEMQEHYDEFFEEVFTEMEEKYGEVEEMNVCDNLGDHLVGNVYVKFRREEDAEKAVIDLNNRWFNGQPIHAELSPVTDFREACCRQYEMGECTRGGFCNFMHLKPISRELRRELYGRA

- binding [1]: binds
- binding [2]: binds
Substance: U2AF2 (residues 85 to the C-terminus) (from UniProt P26368) (domain or fragment)
